# Experimental data as given in PubChem BioAssay AID720504 (National Center for Advancing Translational Sciences (NCATS), 2013).
# Protein sequences, listed by entry. Tags and fused reporters are not part of them.
# UniProt P53350, whole entry, looked up: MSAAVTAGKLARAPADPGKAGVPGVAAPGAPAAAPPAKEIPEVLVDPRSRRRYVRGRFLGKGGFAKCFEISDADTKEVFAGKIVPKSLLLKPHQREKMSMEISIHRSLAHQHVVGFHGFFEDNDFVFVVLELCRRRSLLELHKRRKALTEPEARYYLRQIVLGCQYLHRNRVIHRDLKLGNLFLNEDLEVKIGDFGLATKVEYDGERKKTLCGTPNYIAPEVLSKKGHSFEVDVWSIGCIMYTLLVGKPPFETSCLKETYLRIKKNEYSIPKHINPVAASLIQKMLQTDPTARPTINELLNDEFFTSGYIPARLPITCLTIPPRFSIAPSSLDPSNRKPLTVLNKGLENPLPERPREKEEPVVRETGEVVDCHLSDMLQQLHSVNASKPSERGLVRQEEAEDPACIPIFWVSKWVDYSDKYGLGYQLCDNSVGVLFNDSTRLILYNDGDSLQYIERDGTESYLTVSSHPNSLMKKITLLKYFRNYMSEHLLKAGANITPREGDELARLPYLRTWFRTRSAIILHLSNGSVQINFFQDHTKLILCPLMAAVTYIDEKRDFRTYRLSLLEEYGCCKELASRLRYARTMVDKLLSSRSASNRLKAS
# In all, about 360,000 compounds went through this assay and about 10,000 (2.8%) were called active. The shares of active, inactive and inconclusive entries below differ from those in the screen. The call rests on the fitted dose curve; in most records, active means well fitted inhibition curve with a large enough effect; inconclusive means small, poorly fitted or top-dose-only effect; inactive means flat fitted curve, though single readings scatter. Where the call is inconclusive, the potency comes from a doubtful curve fit.
# Biological target: Serine/threonine-protein kinase PLK1 (Homo sapiens) (UniProt P53350)
# Assay: qHTS for Inhibitors of PLK1-PDB (polo-like kinase 1 - polo-box domain): Primary Screen; further: nearly all actives have a fitted effect of over 65% in size; on max response, negative = inhibition: series mostly up to about 57 µM
# Conditions: Plk1 PBD binding of FITC phosphopeptide, fluorescence polarization
# On the % scale 0 is the no-effect control and ±100 the full control effect; potency means the concentration at half of the fitted maximal effect.
Structure (SMILES),Potency,"max response, negative = inhibition"
COC(=O)CNC(=S)NC(=O)c1ccc(C(C)(C)C)cc1,"inconclusive: 26.7 µM [inhibitor, single point]",–
CCN(CC)S(=O)(=O)c1cccc(-c2cn3cccnc3n2)c1,"inconclusive: 29.9 µM [inhibitor, partial curve]",–
O=C(/C=C/c1ccccn1)c1ccc(Br)cc1O,"inconclusive: 10.6 µM [inhibitor, partial curve]",–
CCC(=O)NNc1ncnc2ccccc12,"inconclusive: 8.44 µM [inhibitor, single point]",–
Cc1ccc(-c2ncns2)cc1,"inconclusive: 37.7 µM [inhibitor, single point]",–
CC(=O)c1cccc(-n2nnnc2SCC(=O)NNC(=O)C2CCCCC2)c1,"inconclusive: 21.2 µM [inhibitor, single point]",–
O=C(Nc1ccc(Br)cc1Cl)c1cnccn1,"inconclusive: 29.9 µM [inhibitor, partial curve]",–
CC1CN(c2oc(Cc3cccc4ccccc34)nc2C#N)CC(C)O1 (stereo not given),–,inactive: 1.59%
CCC(=O)OCC(=O)Nc1ccc(OC)cc1[N+](=O)[O-],–,inactive: -13.9%
Cc1cc(C)cc(Nc2nc3c([nH]2)c(=O)n(C)c(=O)n3C)c1,"inconclusive: 26.7 µM [inhibitor, single point]",–
Cc1nccn1CCCN1C(=O)OC2(CCCCC2)C1(C)O (stereo not given),active: 21.2 µM,–
Cc1cc(NC(=O)CSc2nnnn2Cc2ccccc2)no1,active: 21.2 µM,–
CC(O)[C@H]1CC[C@H]2[C@@H]3CC[C@H]4C[C@H](O)CC[C@]4(C)[C@H]3[C@H](O)C[C@]12C (stereo not given in full),"inconclusive: 26.7 µM [inhibitor, partial curve]",–
O=C1NC(c2ccccn2)Nc2sc3c(c21)CCC3 (stereo not given),–,inactive: -25.2%
CCOC(=O)c1c(C)oc2c1c1c(c3ccccc32)OCN(Cc2cccnc2)C1,active: 4.74 µM,–
Cc1nc2c(C(=O)NCCc3ccccc3)c[nH]n2c(=O)c1Cl,"inconclusive: 31.6 µM [inhibitor, partial curve]",–
Cc1n[nH]c(=O)nc1NCc1ccccc1Cl,"inconclusive: 13.4 µM [inhibitor, partial curve]",–
CC(=O)OCC1=C(C(=O)OC(C)(C)C)N2C(=O)[C@@H](NC(=O)Cc3ccccc3)[C@H]2SC1,active: 16.8 µM,–
C[C@@H]1CN([C@@H](C)CO)C(=O)c2cccc(NC(=O)Nc3ccccc3)c2O[C@H]1CN(C)C(=O)Nc1cccc2ccccc12,–,inactive: -0.476%
Cc1[nH]n(-c2ccccc2)c(=O)c1/C=N/N1C(=O)c2ccc3c4c(ccc(c24)C1=O)CC3,"inconclusive: 16.8 µM [inhibitor, single point]",–
COc1ccc(-c2cc(N)n(S(=O)(=O)c3c(F)c(F)c(F)c(F)c3F)n2)cc1OC,active: 1.19 µM,–
CN1CCN(C(=O)c2ccc(CS(=O)Cc3ccc(Cl)cc3)o2)CC1 (stereo not given),–,inactive: -6.03%
COC(=O)c1ccccc1NC(=O)c1cnn2c(C)cc(C)nc12,–,inconclusive: -34.3% [inhibitor]
Cc1c(NC(=O)CSc2n[nH]c(=O)n2-c2ccccc2)c(=O)n(-c2ccccc2)n1C,active: 26.7 µM,–

Structure (SMILES),Potency,"max response, negative = inhibition"
CCn1nc(NC(=O)c2ccccn2)c2cc3cccc(C)c3nc21,–,inactive: -3.14%
CCN(c1ccc(NC(=O)COC(=O)CCC(=O)c2ccc(F)cc2)cc1)C(C)C,"inconclusive: 37.7 µM [inhibitor, single point]",–
O=C1NC(=O)N(Cc2ccccc2F)C1=O,–,inactive: -23.9%
C=CCC(NCc1ccccc1)c1ccc(C)o1 (stereo not given),active: 10.6 µM,–
O=c1[nH]sc2ccccc12,active: 5.32 µM,–
O=C1Nc2ccc(Cl)cc2C12Nc1ccccc1-c1nnc(SCc3ccccc3F)nc1O2 (stereo not given),"inconclusive: 26.7 µM [inhibitor, single point]",–
CS(=O)(=O)Nc1nc2ccccc2[nH]1,–,inactive: -4%
COC(=O)C12CCC(C)(c3nc4ccccc4nc31)C2(C)C (stereo not given),"inconclusive: 8.44 µM [inhibitor, single point]",–
Cc1cccc(-n2nnnc2SCc2csc(-c3ccccc3)n2)c1,"inconclusive: 21.2 µM [inhibitor, partial curve]",–
Cn1c(OCc2ccc3c(c2)OCO3)nc2c1c(=O)n(Cc1ccc(Cl)c(Cl)c1)c(=O)n2C,–,inconclusive: -30.4% [inhibitor]
COc1ccccc1NC(=O)CSc1nnc(CNC(=O)c2cccs2)o1,–,inconclusive: -33.1% [inhibitor]
COc1ccc(O)c(/C=C2/SC(=S)N(Cc3ccccc3)C2=O)c1,–,inactive: -5.67%
CCc1cc(C(=O)Nc2nc(-c3ccccn3)cs2)sc1C,"inconclusive: 11.9 µM [inhibitor, single point]",–
Cc1ccc2nc(-c3ccc(O)c(O)c3)cn2c1,"inconclusive: 23.8 µM [inhibitor, single point]",–
CC(NC(=O)NNC(N)=S)(C(F)(F)F)C(F)(F)F,–,inactive: -11.2%
CC(C)n1cc(CN2CCC(C(=O)Nc3cccc(-c4cccc(Cl)c4)c3)CC2)cn1,–,inactive: -5.36%
CCOC(=O)C1=C(O)/C(=C/c2cc(C)n(-c3ccccc3)c2C)N=C1C,"inconclusive: 23.8 µM [inhibitor, single point]",–
O=C(NC(=S)Nc1ccccc1[N+](=O)[O-])c1ccco1,"inconclusive: 29.9 µM [inhibitor, single point]",–
Cn1nnnc1NC(=O)c1ccccc1Cl,–,inactive: -2.51%
CC(=O)Oc1ccc2c(=O)c(Oc3ccccc3[N+](=O)[O-])coc2c1,"inconclusive: 33.6 µM [inhibitor, partial curve]",–
C[C@H]1CN([C@@H](C)CO)C(=O)CCCn2cc(nn2)CO[C@@H]1CN(C)C(=O)Nc1cccc(F)c1,–,inactive: 1.88%
CCC(C)[C@H](NC(=O)N1CC(=O)Nc2ccccc21)C(=O)N[C@@H](C(=O)O)c1ccccc1 (stereo not given in full),"inconclusive: 33.6 µM [inhibitor, single point]",–
CC(=O)n1cc([C@@H]2C=C(C(=O)NCc3ccccc3)O[C@H](OCCCCO)C2)c2ccccc21,–,inactive: -11.4%
CC1OC(Oc2c(-c3cc(O)c(O)c(O)c3)oc3cc(O)cc(O)c3c2=O)C(O)C(O)C1O (stereo not given),"inconclusive: 37.7 µM [inhibitor, single point]",–

# Reformatted tab-delimited: part of the list above
Structure (SMILES)	Potency	max response, negative = inhibition
Cc1cccc(-n2nnnc2SCc2csc(-c3ccccc3)n2)c1	inconclusive: 21.2 µM [inhibitor, partial curve]	–
Cn1c(OCc2ccc3c(c2)OCO3)nc2c1c(=O)n(Cc1ccc(Cl)c(Cl)c1)c(=O)n2C	–	inconclusive: -30.4% [inhibitor]

# (list continues)

Structure (SMILES),Potency,"max response, negative = inhibition"
C=CCNC(=O)/C(=C/c1ccc(Br)cc1)NC(=O)c1ccccc1OC,"inconclusive: 29.9 µM [inhibitor, partial curve]",–
CC(C)C[C@@H](CN)NC(=O)c1nc[nH]c1C(=O)N[C@@H](Cc1c[nH]c2ccccc12)C(=O)CNC[C@H](C)NC(=O)c1nc[nH]c1C(=O)N[C@@H](C)C(=O)O,"inconclusive: 23.8 µM [inhibitor, single point]",–
CC(=O)Nc1ccc(S(=O)(=O)Nc2nc(-c3ccc(C(C)(C)C)cc3)cs2)cc1,"inconclusive: 23.8 µM [inhibitor, partial curve]",–
CCCC(=O)Nc1sc(C(=O)OC)c(C)c1C(N)=O,active: 21.2 µM,–
Cc1cc(/C=C2\Sc3ccccc3N2C)cc(C)[n+]1CC1CCCO1 (stereo not given),"inconclusive: 21.2 µM [inhibitor, partial curve]",–
COc1ccc2[nH]c3c(c2c1)CCN1C(=O)C(CC(=O)NCc2ccco2)C[C@H](C(=O)N2CCCCC2)[C@@]31C (stereo not given in full),"inconclusive: 26.7 µM [inhibitor, single point]",–
CSc1ccc(C(=O)c2[nH]c(=O)[nH]c2C)cc1,"inconclusive: 11.9 µM [inhibitor, partial curve]",–
COc1ccc(NC(=O)C2CCCCN2N)cc1OC (stereo not given),active: 26.7 µM,–
COc1ccc(/C=C2\SC(=S)N(CCC(=O)NCCCN3CCOCC3)C2=O)cc1,"inconclusive: 37.7 µM [inhibitor, single point]",–
Cc1cc(C(=O)O)ccc1-c1ccc(/C=C2\NC(=O)N(Cc3ccc(F)cc3)C2=O)o1,"inconclusive: 37.7 µM [inhibitor, single point]",–
Cc1cc(=S)c2ccccc2[nH]1,"inconclusive: 16.8 µM [inhibitor, single point]",–
COc1ccc(NC(=O)C2CCCN(S(=O)(=O)c3ccc4c(c3)CCCN4C(C)=O)C2)cc1 (stereo not given),–,inconclusive: -37% [inhibitor]
CC(=O)N1CCc2c(sc(NC(=O)C3CCCN3S(=O)(=O)c3cccs3)c2C(N)=O)C1 (stereo not given),"inconclusive: 10.6 µM [inhibitor, partial curve]",–
Cc1nc(-c2cccc(S(=O)(=O)N3CCC(C)CC3)c2)cs1,"inconclusive: 29.9 µM [inhibitor, partial curve]",–
CN(C)c1ccc(CC(=O)c2nc3ccccc3s2)cc1,–,inconclusive: -34.9% [inhibitor]
CC1C(C#N)=C(SCC(N)=O)NC2=C1C(=O)CC(C)(C)C2 (stereo not given),active: 26.7 µM,–
O=C(NCCNC(=O)Oc1cccc2ccccc12)Oc1cccc2ccccc12,"inconclusive: 26.7 µM [inhibitor, partial curve]",–
COc1ccc(C(=O)OCC[N+]2(C)CCCCC2)cc1,"inconclusive: 37.7 µM [inhibitor, single point]",–
COc1ccc(CN=C2NN=C(c3cccc(OC)c3)CS2)cc1,"inconclusive: 29.9 µM [inhibitor, partial curve]",–
COc1cc([N+](=O)[O-])cc(/C=N/N(CCC#N)C(C)=O)c1O,–,inactive: -8.59%
CCCCCC1(C(=O)OCC)CC(CSC(=N)N)OC1=O (stereo not given),active: 29.9 µM,–
CCc1ccc(NC(=O)C2CC(=O)N=C(N)S2)cc1 (stereo not given),"inconclusive: 29.9 µM [inhibitor, single point]",–
